We go through 8 targets from the supplement of paper PMC10849652.

The chains behind the UniProt entries cited, without tags or fusion partners. Where a name states a change or a piece, a line headed by the entry shows the natural chain unless it says otherwise.
UniProt O75791: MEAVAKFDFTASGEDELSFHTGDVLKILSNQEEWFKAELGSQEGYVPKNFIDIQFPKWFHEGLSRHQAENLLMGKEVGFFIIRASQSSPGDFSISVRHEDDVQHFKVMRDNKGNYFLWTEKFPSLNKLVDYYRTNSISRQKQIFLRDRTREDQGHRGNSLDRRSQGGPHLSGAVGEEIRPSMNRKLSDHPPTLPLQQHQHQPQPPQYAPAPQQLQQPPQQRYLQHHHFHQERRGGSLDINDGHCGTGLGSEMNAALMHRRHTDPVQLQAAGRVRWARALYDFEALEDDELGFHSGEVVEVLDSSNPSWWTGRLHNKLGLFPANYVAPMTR
UniProt P62993, whole entry, looked up: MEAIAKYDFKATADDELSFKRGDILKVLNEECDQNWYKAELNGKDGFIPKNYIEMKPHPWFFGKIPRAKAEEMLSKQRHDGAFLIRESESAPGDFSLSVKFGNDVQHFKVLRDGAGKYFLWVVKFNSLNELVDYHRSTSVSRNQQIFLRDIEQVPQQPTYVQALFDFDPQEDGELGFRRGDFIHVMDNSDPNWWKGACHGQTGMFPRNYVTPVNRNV
UniProt P69905, whole entry, looked up: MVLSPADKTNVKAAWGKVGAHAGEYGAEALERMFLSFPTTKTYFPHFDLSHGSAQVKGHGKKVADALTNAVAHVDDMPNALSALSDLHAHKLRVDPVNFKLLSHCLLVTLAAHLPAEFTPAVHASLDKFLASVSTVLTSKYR
UniProt P42357: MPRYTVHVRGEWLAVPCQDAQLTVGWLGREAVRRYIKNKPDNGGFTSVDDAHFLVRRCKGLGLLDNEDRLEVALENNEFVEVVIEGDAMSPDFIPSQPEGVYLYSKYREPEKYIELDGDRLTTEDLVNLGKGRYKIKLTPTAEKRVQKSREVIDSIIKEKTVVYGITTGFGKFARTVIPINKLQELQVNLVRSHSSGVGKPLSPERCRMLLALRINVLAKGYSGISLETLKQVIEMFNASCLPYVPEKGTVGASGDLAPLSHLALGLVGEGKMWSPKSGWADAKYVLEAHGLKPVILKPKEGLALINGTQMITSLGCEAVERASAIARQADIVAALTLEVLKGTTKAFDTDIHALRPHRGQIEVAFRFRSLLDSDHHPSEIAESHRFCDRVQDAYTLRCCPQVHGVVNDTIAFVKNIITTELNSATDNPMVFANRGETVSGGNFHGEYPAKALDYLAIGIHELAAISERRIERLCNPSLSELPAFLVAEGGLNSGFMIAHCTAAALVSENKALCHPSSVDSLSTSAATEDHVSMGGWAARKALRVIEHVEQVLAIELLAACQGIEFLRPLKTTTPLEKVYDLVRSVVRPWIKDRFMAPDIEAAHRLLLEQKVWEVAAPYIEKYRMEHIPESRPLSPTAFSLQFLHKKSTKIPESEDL
UniProt P51610: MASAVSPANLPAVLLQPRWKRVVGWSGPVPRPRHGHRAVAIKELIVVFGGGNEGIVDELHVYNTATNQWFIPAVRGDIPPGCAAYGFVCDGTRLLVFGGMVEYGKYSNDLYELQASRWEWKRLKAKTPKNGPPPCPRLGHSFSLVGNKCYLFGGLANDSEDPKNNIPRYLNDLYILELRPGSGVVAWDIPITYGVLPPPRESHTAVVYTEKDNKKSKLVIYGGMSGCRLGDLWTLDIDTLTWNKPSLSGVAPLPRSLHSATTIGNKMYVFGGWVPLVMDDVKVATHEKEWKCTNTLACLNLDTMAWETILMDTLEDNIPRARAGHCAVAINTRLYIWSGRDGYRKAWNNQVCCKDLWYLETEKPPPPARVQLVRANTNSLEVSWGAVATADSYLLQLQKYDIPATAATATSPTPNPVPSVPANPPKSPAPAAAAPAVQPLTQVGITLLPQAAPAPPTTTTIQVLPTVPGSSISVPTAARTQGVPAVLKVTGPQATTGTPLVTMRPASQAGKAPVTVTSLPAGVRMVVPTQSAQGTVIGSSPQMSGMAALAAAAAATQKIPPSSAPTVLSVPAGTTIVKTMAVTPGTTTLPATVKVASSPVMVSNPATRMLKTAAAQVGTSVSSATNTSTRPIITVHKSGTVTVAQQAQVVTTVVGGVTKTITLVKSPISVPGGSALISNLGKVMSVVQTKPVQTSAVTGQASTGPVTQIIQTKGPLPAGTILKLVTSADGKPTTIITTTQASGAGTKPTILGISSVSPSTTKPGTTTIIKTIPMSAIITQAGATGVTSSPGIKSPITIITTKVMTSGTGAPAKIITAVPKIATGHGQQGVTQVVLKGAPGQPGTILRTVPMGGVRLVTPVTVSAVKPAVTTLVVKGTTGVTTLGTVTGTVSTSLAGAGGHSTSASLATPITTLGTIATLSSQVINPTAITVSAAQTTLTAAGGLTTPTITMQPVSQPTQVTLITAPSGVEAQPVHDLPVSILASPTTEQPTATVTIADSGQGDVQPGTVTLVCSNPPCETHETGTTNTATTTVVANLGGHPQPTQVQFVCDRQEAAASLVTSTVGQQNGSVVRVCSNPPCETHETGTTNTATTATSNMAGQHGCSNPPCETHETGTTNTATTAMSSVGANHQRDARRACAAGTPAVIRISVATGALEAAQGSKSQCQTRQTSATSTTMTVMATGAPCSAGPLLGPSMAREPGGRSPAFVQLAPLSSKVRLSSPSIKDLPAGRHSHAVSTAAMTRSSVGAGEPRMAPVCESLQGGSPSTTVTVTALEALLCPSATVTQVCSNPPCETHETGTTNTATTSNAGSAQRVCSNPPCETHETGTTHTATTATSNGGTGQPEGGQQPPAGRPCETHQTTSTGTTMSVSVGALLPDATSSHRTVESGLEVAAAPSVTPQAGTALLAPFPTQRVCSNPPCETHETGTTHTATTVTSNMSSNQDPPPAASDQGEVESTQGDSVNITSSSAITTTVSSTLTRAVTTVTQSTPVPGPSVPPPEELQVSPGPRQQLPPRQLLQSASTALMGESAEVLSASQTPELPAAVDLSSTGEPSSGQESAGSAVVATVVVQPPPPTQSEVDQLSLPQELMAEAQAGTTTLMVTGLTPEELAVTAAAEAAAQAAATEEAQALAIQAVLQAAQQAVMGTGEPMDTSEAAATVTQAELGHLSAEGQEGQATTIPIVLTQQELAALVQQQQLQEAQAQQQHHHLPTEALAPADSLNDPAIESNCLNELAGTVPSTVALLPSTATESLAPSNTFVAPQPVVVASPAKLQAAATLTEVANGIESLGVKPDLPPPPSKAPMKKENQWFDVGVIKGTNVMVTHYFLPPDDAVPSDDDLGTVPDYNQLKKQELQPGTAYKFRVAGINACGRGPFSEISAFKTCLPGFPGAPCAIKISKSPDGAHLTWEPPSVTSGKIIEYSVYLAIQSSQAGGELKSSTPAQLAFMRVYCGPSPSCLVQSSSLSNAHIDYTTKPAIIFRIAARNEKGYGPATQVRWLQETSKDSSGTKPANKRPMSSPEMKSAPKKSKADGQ
UniProt O15488: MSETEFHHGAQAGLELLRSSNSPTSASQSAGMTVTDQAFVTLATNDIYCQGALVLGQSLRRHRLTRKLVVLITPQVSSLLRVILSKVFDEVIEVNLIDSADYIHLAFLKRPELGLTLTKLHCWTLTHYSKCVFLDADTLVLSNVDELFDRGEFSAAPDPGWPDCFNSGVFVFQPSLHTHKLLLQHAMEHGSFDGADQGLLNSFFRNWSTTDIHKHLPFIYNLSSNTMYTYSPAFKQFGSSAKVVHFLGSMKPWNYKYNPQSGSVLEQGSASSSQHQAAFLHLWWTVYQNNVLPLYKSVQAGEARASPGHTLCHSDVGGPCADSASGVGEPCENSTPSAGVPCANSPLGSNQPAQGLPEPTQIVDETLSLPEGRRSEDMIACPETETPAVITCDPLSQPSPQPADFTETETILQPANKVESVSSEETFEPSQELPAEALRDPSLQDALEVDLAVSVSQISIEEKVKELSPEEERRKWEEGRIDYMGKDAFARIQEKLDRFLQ
UniProt P02724: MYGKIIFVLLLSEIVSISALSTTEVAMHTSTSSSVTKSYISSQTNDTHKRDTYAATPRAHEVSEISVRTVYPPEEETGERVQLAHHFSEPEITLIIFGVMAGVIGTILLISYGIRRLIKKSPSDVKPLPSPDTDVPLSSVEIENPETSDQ

This is one part of the list.

Holding throughout (assay): log2 fold change, soluble protein after heating vs DMSO (PISA); higher = thermal stabilisation; K562 lysate, 10 uM; active = over 0.2 and 3.5 SD of the protein, either way, in both replicates (recomputed)
Compound in test [1]: C=CC(=O)N1CCC[C@@H](n2nc(-c3ccc(Oc4ccccc4)cc3)c3c(N)ncnc32)C1 [ibrutinib]
The method, boiled down:
(§1)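 Following dounce homogenisation of K562 pellets in PBS pH 7.4 with 1 mM MgCl2, crude extract at 1 mg/mL protein was incubated for 30 min with 10 μM compound. Aliquots were then heated for 3 min over 48°C-58°C and pooled, NP-40 was added to 0.5% at 4°C, and soluble protein was recovered as the supernatant at 21,000xg for 90 min. Channel-sum-equalised TMTpro 16plex LC-MS/MS quantified this protein. Each value, from duplicates, is a log-two fold change in thermal stability relative to solvent controls.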

Compound in test [2]: CC(=O)c1cnc2ccc(-c3cc(Cl)c(O)c(Cl)c3)nc2c1N[C@H]1CC[C@H](CN(C)C)CC1
The method, boiled down:
as §1

Compound in test [3]: CC(C)(C)Cn1c(N)nc2ccc(-c3[nH]c(C(C)(C)C)nc3-c3ccc(F)cc3)nc21 [ralimetinib]
The method, boiled down: as §1

Compound in test [4]: CC(C)(O)CC(=O)NCCn1ccc2ncnc(Nc3ccc(Oc4cccc(C(F)(F)F)c4)c(Cl)c3)c21
The method, boiled down: as §1

Compound in test [5]: CC(C)C1=C2N=C(C=C(N2N=C1)NCC3=CC=CC=C3)NCCCCCCN
The method, boiled down: as §1

Compound in test [6]: CC1=C(C(CC(=O)N1)C2=CC=C(C=C2)C(F)(F)F)C(=O)NC3=C(C=C4C(=C3)C=NN4)F
The method, boiled down:
as §1

Compound in test [7]: CC1=C(C2=C(C=C1)C(=O)C3=CC=CC=C3N2CCCN)C
In a few lines:
as §1

Compound in test [8]: CC1=C(C=C(C=C1)NC(=O)C2=CC(=CC=C2)C(C)(C)C#N)NC3=CC4=C(C=C3)N=CN(C4=O)C
The method, boiled down: as §1

Compound in test [9]: CC1=C(C=C(C=C1)NC(=O)C2=CC(=CC=C2)N(C)C)NC(=O)C3=CC=C(C=C3)O
In a few lines:
as §1

Compound in test [10]: CC1=CC=C(C=C1)SC2=C3C=C(SC3=CN=C2)C(=O)N
The method, boiled down: as §1

Compound in test [11]: CCCS(=O)(=O)Nc1ccc(F)c(C(=O)c2c[nH]c3ncc(-c4ccc(Cl)cc4)cc23)c1F [vemurafenib]
The method, boiled down:
as §1

Compound in test [12]: CCCS(=O)(=O)Nc1ccc(F)c(C(=O)c2c[nH]c3ncc(Cl)cc23)c1F
The method, boiled down:
as §1

Compound in test [13]: CCN(CCCOc1ccc2c(Nc3cc(CC(=O)Nc4cccc(F)c4)[nH]n3)ncnc2c1)CCOP(=O)(O)O [barasertib]
The method, boiled down:
as §1

Compound in test [14]: CC[C@@H]1C(=O)N(C)c2cnc(Nc3ccc(C(=O)NC4CCN(C)CC4)cc3OC)nc2N1C1CCCC1
The method, boiled down: as §1

Compound in test [15]: CC[C@@H]1C(=O)N(C)c2cnc(Nc3ccc(C(=O)N[C@H]4CC[C@H](N5CCN(CC6CC6)CC5)CC4)cc3OC)nc2N1C(C)C [volasertib]
In a few lines:
as §1

Compound in test [16]: CCn1c(C(=O)N(C2CC2)C2CC2)cc2c3c(ncn3C)c(Nc3cc(C)n(C)n3)nc21
The method, boiled down: as §1

Compound in test [17]: CCn1cc(-c2ccnc3[nH]c(-c4cccc(CN(C)C)c4)cc23)c(-c2ccc(NC(=O)N(C)C)cc2)n1
In a few lines: as §1

Compound in test [18]: CN1CCC(CNc2ccc3ncc(-c4cccc(OC(F)(F)F)c4)n3n2)CC1
The method, boiled down: as §1

Compound in test [19]: CN1CCN(CCOc2cc(OC3CCOCC3)c3c(Nc4c(Cl)ccc5c4OCO5)ncnc3c2)CC1 [saracatinib]
The method, boiled down: as §1

Compound in test [20]: CN1CCN(c2nc(C3=C(c4c[nH]c5ccccc45)C(=O)NC3=O)c3ccccc3n2)CC1 [sotrastaurin]
The method, boiled down: as §1

As to GRAP2 (UniProt O75791), the log2 fold change in test [1] is inactive: 0.017; in test [2] it was inactive: 0.016; in [3], inactive: 0.024; in test [4], inactive: -0.017; in [5] it was inactive: 0.008; in [6], inactive: -0.011. Besides, the log2 fold change in test [7] is inactive: 0.003; in test [8], inactive: -0.012; in test [9] it was inactive: 0.03; in test [10], inactive: 0.018; in test [11], inactive: -0.017; in test [12], inactive: -0.014. Further, the log2 fold change in test [13] was inactive: -0.025; in test [14], inactive: 0.026; in test [15], inactive: -0.016; in [16] it was inactive: -0.026; in test [17] it was inactive: 0.017; in test [18] it was inactive: -0.034. The log2 fold change in test [19] is inactive: 0.062; in [20], inactive: -0.017.

In the case of GRB2 (UniProt P62993), the log2 fold change in test [1] was inactive: -0.005; in test [2] it was inactive: 0.004; in test [3], inactive: -0.032; in test [4] it was inactive: -0.018; in [5], inactive: -0.015; in test [6] it was inactive: -0.004. Moreover, the log2 fold change is inactive: 0 in test [7]; inactive: -0.003 in test [8]; inactive: -0.003 in test [9]; inactive: -0.021 in test [10]; inactive: 0.004 in test [11]; inactive: -0.022 in [12]. The log2 fold change in test [13] was inactive: -0.039; in test [14], inactive: 0.042; in test [15], inactive: 0.014; in test [16] it was inactive: -0.035; in test [17], inactive: -0.002; in test [18] it was inactive: 0.002. The log2 fold change is inactive: 0.002 in test [19] and inactive: 0.016 in test [20].

HBA1 (UniProt P69905): the log2 fold change in test [1] was inactive: 0.011; in test [2], inactive: -0.058; in test [3], inactive: 0.011; in test [4], inactive: -0.062; in test [5], inactive: -0.024; in test [6] it was inactive: -0.062. Also, the log2 fold change was inactive: 0.003 in test [7]; inactive: 0.081 in [8]; inactive: -0.01 in test [9]; inactive: 0.043 in test [10]; inactive: -0.014 in [11]; inactive: -0.035 in [12]. The log2 fold change is inactive: 0.102 in [13]; inactive: -0.018 in test [14]; inactive: 0.086 in test [15]; inactive: 0.03 in test [16]; inactive: -0.054 in [17]; inactive: -0.03 in test [18]. Moreover, the values for the log2 fold change in [19] and in [20] were inactive: 0.03 and inactive: -0.055, respectively.

As to HAL (UniProt P42357), the log2 fold change in [2] was inactive: -0.023; in test [3], inactive: -0.233; in [4], inactive: 0.762; in test [5], inactive: 0.082; in test [7] it was inactive: 0.254; in test [8], inactive: 0.258. Further, the log2 fold change in test [9] is inactive: 0.057; in test [10], inactive: -0.031; in test [12], inactive: -0.12; in [14], inactive: 0.031; in test [15] it was inactive: 0.051; in test [16] it was inactive: 0.613. Besides, the log2 fold change in test [17] is inactive: 0.029; in [18] it was inactive: 0.043; in [19], inactive: -0.244; in test [20], inactive: 0.011.

Consider HCFC1 (UniProt P51610), for which the log2 fold change in [1] is inactive: 0.143; in [2], inactive: 0.052; in test [3], inactive: -0.078; in test [4], inactive: 0.001; in test [5], inactive: -0.423; in [6] it was inactive: 0.103. Besides, the log2 fold change in [8] was inactive: 0.097; in test [9], inactive: -0.007; in [10], inactive: 0.028; in [11], inactive: -0.047; in [12], inactive: 0.086; in [13], inactive: -0.024. Further, the log2 fold change in test [15] is inactive: -0.014; in test [16], inactive: -0.138; in test [17], inactive: -0.131; in test [18] it was inactive: 0.14; in test [20] it was inactive: 0.067.

Consider HBD (UniProt E9PEW8), for which the log2 fold change in test [2] is inactive: -0.016; in test [8], inactive: 0.053; in [10] it was inactive: 0.185; in test [11], inactive: 0.066; in [12] it was inactive: -0.021; in test [15], inactive: 0.076. Also, the log2 fold change was inactive: 1.2 in [17], inactive: -0.002 in test [18] and inactive: 0.064 in [20].

Regarding GYG2 (UniProt O15488), the log2 fold change in test [1] was inactive: -0.051; in test [2], inactive: 0.003; in test [3] it was inactive: -0.012; in test [4] it was inactive: -0.038; in [5], inactive: -0.024; in [7], inactive: -0.062. The log2 fold change was inactive: -0.052 in test [9]; inactive: -0.01 in [10]; inactive: -0.081 in [11]; inactive: 0.013 in test [12]; inactive: 0.056 in [13]; inactive: 0.01 in test [14]. Moreover, the log2 fold change in [15] is inactive: -0.05; in test [16] it was inactive: -0.011; in test [19], inactive: 0.118.

Turning to GYPA (UniProt P02724), the log2 fold change in test [1] is inactive: 0.318; in [2], inactive: 0.102; in [3] it was inactive: -0.052; in test [4] it was inactive: 0.054; in test [5] it was inactive: -0.095; in test [7], inactive: -0.085. For the same target, the log2 fold change in test [8] was inactive: 0.018; in test [9], inactive: -0.037; in test [10], inactive: -0.034; in test [11] it was inactive: -0.011; in test [12] it was inactive: -0.008; in test [13], inactive: 0.254. Moreover, the log2 fold change in test [14] was inactive: 0.188; in test [15] it was inactive: 0.009; in test [16], inactive: -0.081; in [17] it was active: 0.587; in [18], inactive: -0.259; in test [19], inactive: 0.01. Besides, the log2 fold change in test [20] was inactive: 0.011.
